Results deposited as PubChem BioAssay AID1259308 (NCATS, 2017)
Here is a random part of about 59,000 deposited reagents. Of all reagents, about 1,510 (2.6%) got an active call. 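Calls use total luciferase alone and ignore viability, so some active siRNAs may act by altering cell number.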 A number with no mark means an inactive call. The numbers tell different reagents against one gene apart. Further read-outs or replicates are left out here.

Test: 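Knock-downs that increase output of a recombinant reporter protein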 (primary screen)
Cells: human HEK293 embryonic kidney cells stably expressing firefly luciferase (HEK-CMV-Luc2-Hygro)
Knock-down reagent: single siRNA against human genes, 0.8 pmol siRNA per well
Time to read-out: 72 h
Measurement: 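Luciferase light (ONE-Glo) measured on one replicate plate set and viability (CellTiter-Glo) on the other, scaled to a negative control siRNA, with robust z-scores and luciferase per cell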
Reading the numbers: total luciferase, z-score and total luciferase, % of control: higher = more reporter protein produced
Hit rule: 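An siRNA counts as active if its total luciferase robust z-score exceeds 3; genes with two or more such siRNAs out of three were retested with fresh siRNAs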
Meaning of the calls: active = raised luciferase; inactive = no rise

CHCT1 (GeneID 124773) #1: total luciferase, z-score = 0.0341; total luciferase, % of control = 82.6
CHCT1 (GeneID 124773) #2: total luciferase, z-score = 0.614; total luciferase, % of control = 94.1
CHCT1 (GeneID 124773) #3: total luciferase, z-score = 0.0166; total luciferase, % of control = 82.2
UBE2H (GeneID 7328) #1: total luciferase, z-score = 1.19; total luciferase, % of control = 106
UBE2H (GeneID 7328) #2: total luciferase, z-score = -0.38; total luciferase, % of control = 74.3
UBE2H (GeneID 7328) #3: total luciferase, z-score = 0.712; total luciferase, % of control = 96
DAZAP1 (GeneID 26528) #1: total luciferase, z-score = 0.0707; total luciferase, % of control = 83.3
DAZAP1 (GeneID 26528) #2: total luciferase, z-score = 0.376; total luciferase, % of control = 89.4
DAZAP1 (GeneID 26528) #3: total luciferase, z-score = -0.976; total luciferase, % of control = 62.5
GYG1 (GeneID 2992) #1: total luciferase, z-score = 0.696; total luciferase, % of control = 95.7
GYG1 (GeneID 2992) #2: total luciferase, z-score = -0.612; total luciferase, % of control = 69.7
GYG1 (GeneID 2992) #3: total luciferase, z-score = 4.09 (active); total luciferase, % of control = 163
SEC11C (GeneID 90701) #1: total luciferase, z-score = 1.03; total luciferase, % of control = 102
SEC11C (GeneID 90701) #2: total luciferase, z-score = -0.642; total luciferase, % of control = 69.1
SEC11C (GeneID 90701) #3: total luciferase, z-score = 0.684; total luciferase, % of control = 95.5
SAA2 (GeneID 6289) #1: total luciferase, z-score = 1.27; total luciferase, % of control = 107
SAA2 (GeneID 6289) #2: total luciferase, z-score = -0.455; total luciferase, % of control = 72.8
SAA2 (GeneID 6289) #3: total luciferase, z-score = 0.268; total luciferase, % of control = 87.2
PCDHB6 (GeneID 56130) #1: total luciferase, z-score = -0.722; total luciferase, % of control = 67.5
PCDHB6 (GeneID 56130) #2: total luciferase, z-score = -2.08; total luciferase, % of control = 40.5
PCDHB6 (GeneID 56130) #3: total luciferase, z-score = -0.835; total luciferase, % of control = 65.3
TNNT1 (GeneID 7138) #1: total luciferase, z-score = 1.4; total luciferase, % of control = 110
TNNT1 (GeneID 7138) #2: total luciferase, z-score = -1.59; total luciferase, % of control = 50.2
TNNT1 (GeneID 7138) #3: total luciferase, z-score = 1.05; total luciferase, % of control = 103
HIPK2 (GeneID 28996) #1: total luciferase, z-score = -1.03; total luciferase, % of control = 61.3
HIPK2 (GeneID 28996) #2: total luciferase, z-score = -0.805; total luciferase, % of control = 65.9
HIPK2 (GeneID 28996) #3: total luciferase, z-score = -0.093; total luciferase, % of control = 80
HIPK2 (GeneID 28996) #4: total luciferase, z-score = -0.0651; total luciferase, % of control = 80.6
HIPK2 (GeneID 28996) #5: total luciferase, z-score = 0.57; total luciferase, % of control = 93.2
HIPK2 (GeneID 28996) #6: total luciferase, z-score = -1.64; total luciferase, % of control = 49.2
BBS10 (GeneID 79738) #1: total luciferase, z-score = -0.158; total luciferase, % of control = 78.7
BBS10 (GeneID 79738) #2: total luciferase, z-score = 1.94; total luciferase, % of control = 120
BBS10 (GeneID 79738) #3: total luciferase, z-score = -0.544; total luciferase, % of control = 71.1
CAVIN4 (GeneID 347273) #1: total luciferase, z-score = 2.88; total luciferase, % of control = 139
CAVIN4 (GeneID 347273) #2: total luciferase, z-score = 0.997; total luciferase, % of control = 102
CAVIN4 (GeneID 347273) #3: total luciferase, z-score = 1.38; total luciferase, % of control = 109
CAVIN1 (GeneID 284119) #1: total luciferase, z-score = 2.13; total luciferase, % of control = 124
CAVIN1 (GeneID 284119) #2: total luciferase, z-score = 0.563; total luciferase, % of control = 93.1
CAVIN1 (GeneID 284119) #3: total luciferase, z-score = 0.546; total luciferase, % of control = 92.8
PLRG1 (GeneID 5356) #1: total luciferase, z-score = 1.92; total luciferase, % of control = 120
PLRG1 (GeneID 5356) #2: total luciferase, z-score = 1.58; total luciferase, % of control = 113
PLRG1 (GeneID 5356) #3: total luciferase, z-score = 3.45 (active); total luciferase, % of control = 151

5 of these entries in another layout:
target	reagent no.	total luciferase, z-score	total luciferase, % of control
PCDHB6 (GeneID 56130)	1	-0.722	67.5
PCDHB6 (GeneID 56130)	2	-2.08	40.5
PCDHB6 (GeneID 56130)	3	-0.835	65.3
TNNT1 (GeneID 7138)	1	1.4	110
TNNT1 (GeneID 7138)	2	-1.59	50.2
